Laboratory results from patent US6139862A, “Pharmaceutical dipeptide compositions and methods of use thereof” (priority 1998, dated 2000).
At least one peptide structure holds a part that was inferred or is arguable (an end, a ring closure or a residue).

Assays:
[1] = tested on: patients infected with Shigella dysentery; experiment: Treatment of Shigella dysentery; assay type: in vivo, human; conditions: IM single doses 100 ug for 10 consecutive days
[2] = tested on: patients with chronic osteomyelitis of various ethiology and localization; experiment: Treatment of chronic osteomyelitis; assay type: in vivo, human; conditions: IM or intranasally single daily 100 ug for 10 days
[3] = tested on: persons receiving anti-flu vaccination; experiment: Combination with anti-flu vaccination; assay type: in vivo, human; conditions: 50 ug single dose for 3 consecutive days with anti-flu vaccination; period of 12 months; vs vaccination without the peptide
[4] = tested on: Individuals infected with AIDS; experiment: Treatment of individuals infected with AIDS; assay type: in vivo, human; conditions: sodium salt in sterile saline, IM, infralymphatically, or intranasally each day for 5-10 days every 30 days
[5] = tested on: Patients with pyelonephritis; experiment: Treatment of pyelonephritis; assay type: in vivo, human; conditions: single daily dose 100 ug for 5-10 consecutive days with conventional therapy
[6] = tested on: patients with hemorrhagic Dengue Fever; experiment: Treatment of hemorrhagic Dengue Fever; assay type: in vivo, human; conditions: IM single daily 100 ug for 5 consecutive days with conventional therapy
[7] = tested on: Patients with pyoderma, including furunculitis, cellulitis, and folliculitis; experiment: Treatment of pyoderma; assay type: in vivo, human; conditions: IM or intranasally for 5 consecutive days; untreated control group
[8] = tested on: chronic and acute ear infections; experiment: Treatment of ear infections; assay type: in vivo; conditions: IM or intranasal accompanying conventional therapy (antibiotics)

`CC[C@H](C)[C@H](N)C(=O)N[C@@H](Cc1c[nH]c2ccccc12)C(=O)O` [Ile-Trp, L-Ile-L-Trp] was tested, and the “fever, toxemia, gastrointestinal disorders and symptoms” value [1] was “normalization of fever, the reduction of toxemia, and the normalization gastrointestinal disorders and symptoms”, the “influence on clinical course” value [2] was “pronounced positive influence on clinical course” and the sickness rate [3] was “significant decrease of sickness rate”. The “immunologic indices, including T-cell functional activity and T4/T8 ratios” value [4] was “restoring normal immunologic indices, including T-cell functional activity and T4/T8 ratios”, the “fever, urine analysis, infection” value [5] was “reduction of fever, the normalization of urine analysis, and the improvement and resolution of the infection” and the “fever, toxic symptoms, hepato-lineal syndrome” value [6] was “reduction in fever, reduction of toxic symptoms, significant decrease in hepato-lineal syndrome”. The “immunological indices, skin manifestations, relapses” value [7] was “Immunological indices are normalized with disappearance of skin manifestations and relapses are prevented” and the “healing of chronic and acute ear infections” value [8] was “accelerated healing of chronic and acute ear infections”.
